This passage reports binding results from article PMC5993293.

Amino acid sequences for entries named in this document (tags omitted).
UniProt O88939: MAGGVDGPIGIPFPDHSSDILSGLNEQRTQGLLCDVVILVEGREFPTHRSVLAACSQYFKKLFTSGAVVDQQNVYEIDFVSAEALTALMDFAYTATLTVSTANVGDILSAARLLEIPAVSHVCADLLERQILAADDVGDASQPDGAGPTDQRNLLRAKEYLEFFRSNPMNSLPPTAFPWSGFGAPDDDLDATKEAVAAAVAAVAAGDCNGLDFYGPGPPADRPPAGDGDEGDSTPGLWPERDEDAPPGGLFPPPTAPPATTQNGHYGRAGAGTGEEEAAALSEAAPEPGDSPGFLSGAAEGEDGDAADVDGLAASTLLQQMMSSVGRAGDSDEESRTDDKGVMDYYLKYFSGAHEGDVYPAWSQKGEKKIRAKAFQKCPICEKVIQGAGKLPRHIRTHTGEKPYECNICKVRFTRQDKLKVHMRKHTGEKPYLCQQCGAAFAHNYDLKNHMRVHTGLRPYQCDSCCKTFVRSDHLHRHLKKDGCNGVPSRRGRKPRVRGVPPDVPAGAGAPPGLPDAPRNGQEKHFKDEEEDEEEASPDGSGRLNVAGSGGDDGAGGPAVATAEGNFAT

Test [1] has as its target NFκB p65, endogenous in mouse 3T3 fibroblasts (mouse (endogenous in 3T3 fibroblasts)) (UniProt Q04207). The test can be described thus: co-IP; TNF-α-treated unmodified fibroblasts; immunoprecipitation with anti-p65, immunoblotting to detect Zbtb7a; both endogenous.
For test [2], the target named is T1, isolated C-terminus of p65 fused to Venus fragment V2 (mouse) (UniProt Q04207).
T1 sequence: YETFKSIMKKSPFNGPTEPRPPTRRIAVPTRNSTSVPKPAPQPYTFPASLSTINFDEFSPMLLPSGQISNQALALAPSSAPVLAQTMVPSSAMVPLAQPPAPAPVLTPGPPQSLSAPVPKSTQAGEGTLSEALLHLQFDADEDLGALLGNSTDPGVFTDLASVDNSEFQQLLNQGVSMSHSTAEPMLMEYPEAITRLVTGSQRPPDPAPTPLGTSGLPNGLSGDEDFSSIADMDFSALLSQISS
The test can be described thus: split reporter; BiFC with Venus fragments V1 (aa 1-158) and V2 (aa 159-239); HEK-293 cells cotransfected; fluorescence quantified by flow cytometry after 24 to 48 hours. In general terms: A flow cytometer gives signals particle by particle.

The target in test [3] is p65-V2 (mouse NFκB p65 fused to the C-terminal fragment of Venus) (mouse) (UniProt Q04207). The test is described as above.

No constants are given. Whether binding was seen depends on the method and setting. Binding seen in cells or lysates may run through a third protein. Some results given as binding are weak or reduced against the parent protein; the word gives no strength. For part of these data: Tags and fused reporters may be left off the sequences shown.

As for “Zbtb7a, endogenous in mouse 3T3 fibroblasts (from UniProt O88939 1-569)”, the binding entry in test [1] is “binds”. Take “Zbtb7a-V1 (Zbtb7a fused to the N-terminal fragment of Venus) (from UniProt O88939 1-569)”: the binding result in test [2] and in test [3] was “binds” throughout.
